This assay addresses fibrinogen-like protein 1 (FGL1) (human (endogenous in PC9)) (UniProt Q08830). The assay is described as follows: affinity purification with mass spectrometry; PC9 total lysate (SD-002 buffer) incubated at 4 °C for 8 h with anti-FGL1 antibody (ab170922; Abcam), then Protein A/G agarose for 2 h; washed with lysis buffer; analysed by mass spectrometry.

Chains of the proteins cited; added tags and fusions are not shown. Residues count along the entry.
UniProt Q08830, residues 23-312: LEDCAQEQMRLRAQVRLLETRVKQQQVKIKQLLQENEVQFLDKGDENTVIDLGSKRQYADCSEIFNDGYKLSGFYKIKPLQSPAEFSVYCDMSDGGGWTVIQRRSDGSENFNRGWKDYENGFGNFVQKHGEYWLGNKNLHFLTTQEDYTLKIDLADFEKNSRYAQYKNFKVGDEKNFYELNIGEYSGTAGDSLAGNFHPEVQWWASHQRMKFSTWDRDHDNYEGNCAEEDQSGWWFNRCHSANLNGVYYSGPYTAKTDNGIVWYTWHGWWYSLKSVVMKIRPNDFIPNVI
UniProt P35579: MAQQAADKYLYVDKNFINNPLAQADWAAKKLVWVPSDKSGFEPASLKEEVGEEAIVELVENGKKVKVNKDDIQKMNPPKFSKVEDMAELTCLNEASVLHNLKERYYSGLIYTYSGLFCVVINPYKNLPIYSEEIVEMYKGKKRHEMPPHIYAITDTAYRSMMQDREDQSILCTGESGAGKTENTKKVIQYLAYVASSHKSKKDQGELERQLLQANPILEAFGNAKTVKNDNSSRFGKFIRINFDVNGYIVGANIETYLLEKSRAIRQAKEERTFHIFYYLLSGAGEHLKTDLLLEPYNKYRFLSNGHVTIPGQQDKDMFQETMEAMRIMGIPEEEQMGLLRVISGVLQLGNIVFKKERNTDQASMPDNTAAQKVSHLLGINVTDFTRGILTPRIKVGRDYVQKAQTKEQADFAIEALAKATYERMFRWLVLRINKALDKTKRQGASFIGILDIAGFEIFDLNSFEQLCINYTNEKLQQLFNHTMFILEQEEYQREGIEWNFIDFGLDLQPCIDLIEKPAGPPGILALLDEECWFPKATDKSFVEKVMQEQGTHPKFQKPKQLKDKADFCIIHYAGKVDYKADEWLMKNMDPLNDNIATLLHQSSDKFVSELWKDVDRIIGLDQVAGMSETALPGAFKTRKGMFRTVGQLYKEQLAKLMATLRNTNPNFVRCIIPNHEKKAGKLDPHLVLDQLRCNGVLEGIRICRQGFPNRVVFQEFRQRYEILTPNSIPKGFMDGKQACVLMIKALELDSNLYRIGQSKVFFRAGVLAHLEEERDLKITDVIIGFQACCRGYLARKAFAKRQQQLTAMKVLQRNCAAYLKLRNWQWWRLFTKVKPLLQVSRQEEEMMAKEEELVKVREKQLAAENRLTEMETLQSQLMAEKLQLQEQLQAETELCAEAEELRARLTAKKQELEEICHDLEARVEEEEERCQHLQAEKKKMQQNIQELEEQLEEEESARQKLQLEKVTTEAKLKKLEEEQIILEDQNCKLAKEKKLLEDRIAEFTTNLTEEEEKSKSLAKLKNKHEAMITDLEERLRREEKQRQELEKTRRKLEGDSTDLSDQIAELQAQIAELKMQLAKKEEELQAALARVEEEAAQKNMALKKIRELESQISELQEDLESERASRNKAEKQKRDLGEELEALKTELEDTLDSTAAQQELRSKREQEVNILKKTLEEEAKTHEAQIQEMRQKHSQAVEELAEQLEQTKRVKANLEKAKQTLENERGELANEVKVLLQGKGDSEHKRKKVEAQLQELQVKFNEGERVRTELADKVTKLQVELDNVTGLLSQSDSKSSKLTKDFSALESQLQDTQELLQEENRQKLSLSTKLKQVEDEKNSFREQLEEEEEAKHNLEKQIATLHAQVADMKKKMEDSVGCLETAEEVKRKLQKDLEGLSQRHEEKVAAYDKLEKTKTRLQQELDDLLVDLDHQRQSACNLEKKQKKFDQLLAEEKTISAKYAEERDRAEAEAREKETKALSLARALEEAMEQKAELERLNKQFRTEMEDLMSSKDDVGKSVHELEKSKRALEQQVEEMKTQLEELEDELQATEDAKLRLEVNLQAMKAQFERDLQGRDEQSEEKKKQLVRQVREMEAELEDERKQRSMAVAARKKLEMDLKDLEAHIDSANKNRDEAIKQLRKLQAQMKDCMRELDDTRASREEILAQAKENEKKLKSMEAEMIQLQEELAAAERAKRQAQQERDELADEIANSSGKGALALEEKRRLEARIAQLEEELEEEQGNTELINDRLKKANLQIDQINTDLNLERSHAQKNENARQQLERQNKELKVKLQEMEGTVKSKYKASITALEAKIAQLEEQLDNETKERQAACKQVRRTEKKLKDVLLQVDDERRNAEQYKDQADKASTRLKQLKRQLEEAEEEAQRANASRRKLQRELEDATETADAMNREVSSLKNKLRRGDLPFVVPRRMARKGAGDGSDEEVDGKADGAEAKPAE

This passage reports binding results from PMC9577086.

No constants are given. Whether binding was seen depends on the method and setting. Binding seen in cells or lysates may run through a third protein. Here binding means that the protein was enriched with, or labelled near, the bait; the list need not be complete.

Consider “Myosin heavy chain 9 (MYH9) (from UniProt P35579 1-1960)”, for which the binding entry is reported as “binds”.
